Assay results from patent US20260183429A1, “COMPOSITIONS FOR MODULATING ACETYLATED TUBULIN LEVELS AND METHODS THEREOF” (THE TRUSTEES OF COLUMBIA UNIVERSITY IN THE CITY OF NEW YORK, priority 2023, published 2026).
Results are given in words; binding and its absence hold for the method and conditions named. For part of these data: Binding seen in cells or lysates may run through a third protein. Some entries that bind do so weakly or less than the wild type. For part of these data: Where a sequence is shown, tags or fusion partners need not be part of it.

Amino acid sequences for entries named in this document (tags omitted).
UniProt Q8BG51: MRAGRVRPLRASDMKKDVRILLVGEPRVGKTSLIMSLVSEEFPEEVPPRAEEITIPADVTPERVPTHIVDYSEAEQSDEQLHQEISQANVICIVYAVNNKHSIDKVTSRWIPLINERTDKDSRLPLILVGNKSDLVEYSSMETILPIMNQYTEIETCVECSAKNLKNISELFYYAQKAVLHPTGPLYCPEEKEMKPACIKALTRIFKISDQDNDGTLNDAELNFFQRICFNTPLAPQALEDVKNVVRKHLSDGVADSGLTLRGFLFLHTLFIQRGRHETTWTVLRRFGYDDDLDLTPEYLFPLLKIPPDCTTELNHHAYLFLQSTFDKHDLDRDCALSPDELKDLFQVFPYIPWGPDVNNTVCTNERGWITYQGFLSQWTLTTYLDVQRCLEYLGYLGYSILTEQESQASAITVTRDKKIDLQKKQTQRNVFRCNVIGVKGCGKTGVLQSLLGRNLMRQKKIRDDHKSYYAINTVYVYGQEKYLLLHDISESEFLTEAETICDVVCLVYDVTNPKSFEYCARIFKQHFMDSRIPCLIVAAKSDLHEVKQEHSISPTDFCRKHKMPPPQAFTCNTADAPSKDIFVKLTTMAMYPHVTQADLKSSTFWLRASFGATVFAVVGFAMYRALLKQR
UniProt Q8K341: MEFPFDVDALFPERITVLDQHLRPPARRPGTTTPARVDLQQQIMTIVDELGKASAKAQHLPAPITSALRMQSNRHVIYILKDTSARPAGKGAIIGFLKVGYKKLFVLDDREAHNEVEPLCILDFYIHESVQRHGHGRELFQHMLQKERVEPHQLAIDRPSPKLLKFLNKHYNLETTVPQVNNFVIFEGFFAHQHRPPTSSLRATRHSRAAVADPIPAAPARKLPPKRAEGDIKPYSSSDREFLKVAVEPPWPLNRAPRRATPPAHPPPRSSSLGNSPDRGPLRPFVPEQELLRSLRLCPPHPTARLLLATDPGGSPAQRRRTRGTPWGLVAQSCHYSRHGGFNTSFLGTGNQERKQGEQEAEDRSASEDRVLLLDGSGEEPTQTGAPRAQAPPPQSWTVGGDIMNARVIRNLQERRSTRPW
UniProt Q5SQI0: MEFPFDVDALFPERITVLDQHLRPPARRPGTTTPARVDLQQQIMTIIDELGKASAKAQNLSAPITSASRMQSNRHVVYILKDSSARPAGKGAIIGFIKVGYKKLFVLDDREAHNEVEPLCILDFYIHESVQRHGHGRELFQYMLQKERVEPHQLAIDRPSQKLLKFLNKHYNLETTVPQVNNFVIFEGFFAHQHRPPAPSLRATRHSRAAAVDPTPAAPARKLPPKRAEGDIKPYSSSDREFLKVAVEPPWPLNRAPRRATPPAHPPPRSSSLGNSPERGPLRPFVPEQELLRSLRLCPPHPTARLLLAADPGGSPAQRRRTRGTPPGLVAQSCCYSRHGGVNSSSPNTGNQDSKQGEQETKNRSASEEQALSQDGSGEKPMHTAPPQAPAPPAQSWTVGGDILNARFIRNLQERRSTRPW

What was measured:
[1] = molecular target: endogenous Miro1 in WT mouse embryonic fibroblasts (MEFs) (mouse) (UniProt Q8BG51); experiment: proximity ligation assay in WT MEFs
[2] = molecular target: T1, Myc-MFN2 WT (UniProt Q80U63); experiment: immunoprecipitation and immunoblot in HEK293T cells, FIG. 7K lower panel
T1 sequence (looked up): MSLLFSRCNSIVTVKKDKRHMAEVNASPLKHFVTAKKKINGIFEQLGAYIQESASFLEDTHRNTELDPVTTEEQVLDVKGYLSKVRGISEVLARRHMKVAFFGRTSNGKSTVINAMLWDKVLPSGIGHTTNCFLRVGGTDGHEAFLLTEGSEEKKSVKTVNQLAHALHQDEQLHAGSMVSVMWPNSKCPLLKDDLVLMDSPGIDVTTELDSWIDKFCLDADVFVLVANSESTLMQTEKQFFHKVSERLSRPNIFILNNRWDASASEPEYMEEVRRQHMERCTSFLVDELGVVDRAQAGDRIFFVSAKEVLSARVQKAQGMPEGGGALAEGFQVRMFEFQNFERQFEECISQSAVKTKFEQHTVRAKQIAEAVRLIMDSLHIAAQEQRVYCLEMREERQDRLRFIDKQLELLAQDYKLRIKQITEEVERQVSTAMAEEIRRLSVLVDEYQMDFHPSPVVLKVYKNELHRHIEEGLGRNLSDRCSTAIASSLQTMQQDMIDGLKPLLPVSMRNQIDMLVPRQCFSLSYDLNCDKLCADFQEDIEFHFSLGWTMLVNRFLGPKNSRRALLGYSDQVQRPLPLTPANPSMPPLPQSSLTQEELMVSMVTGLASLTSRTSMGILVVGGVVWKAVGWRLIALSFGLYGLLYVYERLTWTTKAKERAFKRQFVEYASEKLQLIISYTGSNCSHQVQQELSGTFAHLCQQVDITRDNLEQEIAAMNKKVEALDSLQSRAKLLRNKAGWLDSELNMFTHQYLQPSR

[3] = molecular target: T1, Myc-MFN2 WT; experiment: co-immunoprecipitation, cells overexpressing Myc-MFN2 alone

Row | binding [1] | binding [2] | binding [3] | Substance
1 | binds | – | – | endogenous ATAT1 in WT mouse embryonic fibroblasts (MEFs) (from UniProt Q8K341 1-421) (enzyme)
2 | – | binds | binds | endogenous ATAT1 in HEK293T cells (from UniProt Q5SQI0 1-421) (enzyme)
